The record followed here is paper doi:10.1101/2025.04.28.650977.

Protein sequences, listed by entry. Tags and fused reporters are not part of them.
UniProt O14543: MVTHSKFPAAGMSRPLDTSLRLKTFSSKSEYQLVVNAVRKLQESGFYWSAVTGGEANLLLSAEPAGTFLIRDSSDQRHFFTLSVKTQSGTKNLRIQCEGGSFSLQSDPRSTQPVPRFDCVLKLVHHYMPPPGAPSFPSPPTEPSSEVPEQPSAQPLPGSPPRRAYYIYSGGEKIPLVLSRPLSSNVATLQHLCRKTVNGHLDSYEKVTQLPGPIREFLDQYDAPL
UniProt Q8WXH5: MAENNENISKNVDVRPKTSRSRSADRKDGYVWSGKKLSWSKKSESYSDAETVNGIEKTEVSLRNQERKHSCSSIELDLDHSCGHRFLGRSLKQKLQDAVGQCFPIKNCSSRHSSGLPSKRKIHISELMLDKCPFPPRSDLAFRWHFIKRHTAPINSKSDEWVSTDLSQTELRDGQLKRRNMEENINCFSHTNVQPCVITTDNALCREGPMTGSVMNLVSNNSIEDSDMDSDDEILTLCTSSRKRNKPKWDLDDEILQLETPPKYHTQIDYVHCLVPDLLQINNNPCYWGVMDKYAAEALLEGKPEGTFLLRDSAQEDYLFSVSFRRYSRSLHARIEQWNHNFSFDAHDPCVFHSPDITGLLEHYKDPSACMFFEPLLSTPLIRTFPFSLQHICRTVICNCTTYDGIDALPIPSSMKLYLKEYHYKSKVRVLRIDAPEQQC
UniProt Q8WZ64: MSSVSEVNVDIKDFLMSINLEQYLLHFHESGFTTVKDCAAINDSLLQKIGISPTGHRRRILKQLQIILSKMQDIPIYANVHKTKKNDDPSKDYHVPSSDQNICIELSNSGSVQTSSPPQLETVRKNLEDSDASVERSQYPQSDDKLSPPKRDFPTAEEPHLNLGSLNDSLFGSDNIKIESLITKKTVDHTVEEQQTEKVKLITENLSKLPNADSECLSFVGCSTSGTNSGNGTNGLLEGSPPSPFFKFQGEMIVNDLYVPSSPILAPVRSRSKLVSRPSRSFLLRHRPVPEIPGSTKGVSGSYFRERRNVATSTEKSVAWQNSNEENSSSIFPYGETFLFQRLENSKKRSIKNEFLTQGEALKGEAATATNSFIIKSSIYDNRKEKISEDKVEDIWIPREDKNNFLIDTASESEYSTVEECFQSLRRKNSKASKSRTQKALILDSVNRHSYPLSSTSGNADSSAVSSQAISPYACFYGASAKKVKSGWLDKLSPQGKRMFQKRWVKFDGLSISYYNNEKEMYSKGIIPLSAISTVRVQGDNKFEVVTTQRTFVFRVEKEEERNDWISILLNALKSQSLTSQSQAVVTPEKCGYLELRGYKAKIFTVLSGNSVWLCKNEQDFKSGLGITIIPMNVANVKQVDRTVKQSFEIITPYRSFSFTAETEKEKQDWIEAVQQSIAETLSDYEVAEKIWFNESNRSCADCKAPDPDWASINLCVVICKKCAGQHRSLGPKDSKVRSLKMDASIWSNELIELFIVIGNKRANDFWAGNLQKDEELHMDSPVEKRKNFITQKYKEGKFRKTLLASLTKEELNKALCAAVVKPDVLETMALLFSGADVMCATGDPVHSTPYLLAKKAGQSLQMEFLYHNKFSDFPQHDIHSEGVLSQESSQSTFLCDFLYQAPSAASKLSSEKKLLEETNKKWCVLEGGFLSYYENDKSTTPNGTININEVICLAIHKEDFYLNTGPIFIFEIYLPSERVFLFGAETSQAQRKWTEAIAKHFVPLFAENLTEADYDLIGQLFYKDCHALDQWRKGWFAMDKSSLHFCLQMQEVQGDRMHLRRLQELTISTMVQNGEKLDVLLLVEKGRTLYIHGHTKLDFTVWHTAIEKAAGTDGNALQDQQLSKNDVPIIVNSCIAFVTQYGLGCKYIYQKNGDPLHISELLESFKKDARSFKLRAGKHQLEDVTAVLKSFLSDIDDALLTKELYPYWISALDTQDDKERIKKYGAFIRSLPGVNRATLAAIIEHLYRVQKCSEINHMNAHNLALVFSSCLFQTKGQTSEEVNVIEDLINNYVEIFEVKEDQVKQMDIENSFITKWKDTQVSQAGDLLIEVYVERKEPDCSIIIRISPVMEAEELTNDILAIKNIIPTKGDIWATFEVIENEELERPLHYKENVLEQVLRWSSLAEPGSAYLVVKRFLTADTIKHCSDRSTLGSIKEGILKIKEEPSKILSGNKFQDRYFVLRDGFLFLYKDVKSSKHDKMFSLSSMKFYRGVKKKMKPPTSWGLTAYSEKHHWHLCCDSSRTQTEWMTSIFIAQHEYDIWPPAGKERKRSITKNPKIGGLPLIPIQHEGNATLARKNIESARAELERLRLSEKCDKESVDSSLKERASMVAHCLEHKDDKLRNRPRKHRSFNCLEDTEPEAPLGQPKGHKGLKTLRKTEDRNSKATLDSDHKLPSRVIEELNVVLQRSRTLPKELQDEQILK

These are yes or no findings as the source states them, for the method shown. In cells and extracts the contact can be indirect.

Experiment [1] addresses full-length Flag-tagged SOCS3 (UniProt O14543). In words: co-IP.
Experiment [2] has as its target full-length Flag-tagged SOCS4 (UniProt Q8WXH5). In words: co-IP.

For the substance “ARAP2, endogenous in HEK293T cells (from UniProt Q8WZ64 1-1704)”, the binding result in experiment [1] and in experiment [2] was “no binding” each time.
